Among the data in article PMC9278091, “ATP‐independent molecular chaperone activity generated under reducing conditions” (Protein Science : A Publication of the Protein Society, 2022) are binding values, retold here.

Results are given in words; binding and its absence hold for the method and conditions named. Some entries that bind do so weakly or less than the wild type.

The assay concerns the target NT*-Bri2 BRICHOScys mutant C223S (NT*-Bri2 BRICHOScys 164-164 dimer) (human) (UniProt Q9Y287). The assay is described as follows: non-reducing SDS-PAGE and Western blot; dimer fractions of Bri2 BRICHOScys mutants with or without NT* mixed 1:1 at 10 μM final protein, 20 mM phosphate buffer pH 8, 0.2 mM EDTA, 0.02% NaN3, 2.5x thrombin inhibitor, 37°C overnight; mixed disulfide band; both purified. On the technique in general: A western blot detects proteins with antibodies after separation by electrophoresis.

As for “Bri2 BRICHOScys mutant C223S without NT* tag (Cys164-Cys164 dimer) (from UniProt Q9Y287 113-231) (domain or fragment)”, the binding result is reported as “binds weakly”.
